Source: PubChem BioAssay AID248 (DTP/NCI, 2004)
The list shows only some results of the screen, not a fair sample: it is rich in T/C values a quarter to a half above the control, in often repeated tests (any T/C) and in doses without a T/C. Further doses and runs are listed elsewhere. T/C gives the treated animals as a percentage of the vehicle group. Some entries give survivors of the animals treated and no T/C: the source holds a T/C of zero for them, seemingly a mark for toxic or unscored doses. Some survivor counts are full or nearly so, which does not show that the dose was tolerated: survival well below the control is almost never listed, so the zero probably covers shortened survival too. Counts of survivors are from the toxicity check (mostly the fifth day) where no day follows; animals may have died later. Schedule codes are those of the source, taken here to give the interval after Q, in days (D) or hours (H), and the number of doses after X. Some schedules carry Z or #; the key to these is not given. For survival time, this PubChem deposit counts one and a half times the control or more as active, and values a quarter to a half above the control carry no call in these data; other NCI protocols may use other cut-offs. Some entries were tested several times; the results are listed from low to high. Some T/C values carry the count of animals alive at the toxicity check (mostly the fifth day); where none is given, no animal had died by that day.

Test system: L1210 leukemia ip in BDF1 mice, survival T/C
Experiment: NCI In Vivo Anticancer Drug Screen. Data for tumor model L1210 Leukemia (intraperitoneal) in B6D2F1 (BDF1) mice
Settings: T/C endpoint: mean survival time, higher T/C = longer survival
[1] = dose: 160.0 mg/kg/injection, schedule: Q04DX003 (ip), vehicle: saline
[2] = dose: 320.0 mg/kg/injection, schedule: Q04DX003 (ip), vehicle: saline
[3] = dose: 200.0 mg/kg/injection, schedule: Q04DX003 (ip), vehicle: Klucel (hydroxypropylcellulose) (HPC)
[4] = dose: 400.0 mg/kg/injection, schedule: Q04DX003 (ip), vehicle: Klucel (hydroxypropylcellulose) (HPC)
[5] = dose: 400.0 mg/kg/injection, schedule: Q04DX003 (ip), vehicle: saline with Tween-80
[6] = dose: 100.0 mg/kg/injection, schedule: Q04DX003 (ip), vehicle: Klucel (hydroxypropylcellulose) (HPC)
[7] = dose: 400.0 mg/kg/injection, schedule: Q01DX001 (ip), vehicle: saline

## C(CC1CO1)CC1OC1CC1CO1 (configuration not stated)
dose: 39.0 mg/kg/injection, schedule: Q01DX009 (ip), vehicle: saline with Tween-80
  T/C: 125 % of control
dose: 59.0 mg/kg/injection, schedule: Q01DX009 (ip), vehicle: saline with Tween-80
  T/C: 138 % of control
dose: 89.0 mg/kg/injection, schedule: Q01DX009 (ip), vehicle: saline with Tween-80
  T/C: 149 % of control
dose: 90.0 mg/kg/injection, schedule: Q01DX009 (ip), vehicle: Klucel (hydroxypropylcellulose) (HPC)
  T/C: 135 % of control
dose: 106.0 mg/kg/injection, schedule: Q04DX003 (ip), vehicle: saline
  T/C: 125 % of control
dose: 150.0 mg/kg/injection, schedule: Q01DX009 (ip), vehicle: other
  survivor count: 3 of 6
[1]
  T/C: 128 % of control
dose: 240.0 mg/kg/injection, schedule: Q04DX003 (ip), vehicle: saline
  T/C: 139 % of control [5 of 6 alive]
[2]
  survivor count: 5 of 6
dose: 640.0 mg/kg/injection, schedule: Q04DX003 (ip), vehicle: saline
  survivor count: 0 of 6

## O=[N+]([O-])c1cc(F)ccc1O
dose: 200.0 mg/kg/injection, schedule: Q01DX009 (ip), vehicle: Klucel (hydroxypropylcellulose) (HPC)
  survivor count: 4 of 6
[3]
  survivor count: 4 of 6
dose: 400.0 mg/kg/injection, schedule: Q01DX009 (ip), vehicle: Klucel (hydroxypropylcellulose) (HPC)
  survivor count: 1 of 6
[4]
  survivor count: 1 of 6
[5]
  survivor count: 3 of 6

## COc1cc2c(ccc3c4cc(OC)c(OC)cc4c[n+](C)c23)cc1O
dose: 40.0 mg/kg/injection, schedule: Q01DX009 (ip), vehicle: saline
  T/C: 137 % of control
dose: 40.0 mg/kg/injection, schedule: Q04DX003 (ip), vehicle: saline
  T/C: 143 % of control
dose: 80.0 mg/kg/injection, schedule: Q04DX003 (ip), vehicle: saline
  T/C: 145 % of control
[6]
  T/C: 134 % of control
dose: 160.0 mg/kg/injection, schedule: Q01DX009 (ip), vehicle: saline
  T/C: 145 % of control
[1]
  T/C: 136 % of control
[3]
  T/C: 125 and 132 % of control
[2]
  T/C: 137 % of control
[4]
  T/C: 132 % of control

## Nc1nc(N)c(N=O)c(Nc2ccc(O)cc2)n1
dose: 100.0 mg/kg/injection, schedule: Q01DX Z (ip), vehicle: methylcellulose (MC)
  survivor count: 6 of 6

## O=NN(CCCl)C(=O)Nc1ccc(Oc2ccc(NC(=O)N(CCCl)N=O)cc2)cc1
dose: 20.0 mg/kg/injection, schedule: Q01DX001 (ip), vehicle: carboxymethylcellulose (CMC)
  T/C: 144 % of control
dose: 40.0 mg/kg/injection, schedule: Q01DX001 (ip), vehicle: carboxymethylcellulose (CMC)
  T/C: 140 % of control
dose: 60.0 mg/kg/injection, schedule: Q01DX001 (ip), vehicle: carboxymethylcellulose (CMC)
  T/C: 134 % of control
dose: 93.0 mg/kg/injection, schedule: Q01DX001 (ip), vehicle: carboxymethylcellulose (CMC)
  T/C: 146 % of control
dose: 187.0 mg/kg/injection, schedule: Q01DX001 (ip), vehicle: carboxymethylcellulose (CMC)
  T/C: 146 % of control

## CCCCCCCCCCCCCCCCCN
dose: 50.0 mg/kg/injection, schedule: Q01DX009 (ip), vehicle: Klucel (hydroxypropylcellulose) (HPC)
  survivor count: 5 of 6
[6]
  survivor count: 6 of 6
[3]
  survivor count: 4 of 6
[4]
  survivor count: 0 of 6

## O=C(CCc1ccccc1)NC1CCCCC1
dose: 100.0 mg/kg/injection, schedule: Q01DX001 (ip), vehicle: Klucel (hydroxypropylcellulose) (HPC)
  survivor count: 6 of 6
dose: 200.0 mg/kg/injection, schedule: Q01DX001 (ip), vehicle: Klucel (hydroxypropylcellulose) (HPC)
  survivor count: 6 of 6
dose: 400.0 mg/kg/injection, schedule: Q01DX001 (ip), vehicle: Klucel (hydroxypropylcellulose) (HPC)
  survivor count: 6 of 6

## CCCCCCOC(=O)/C=C(/C)OCCCCCC
dose: 400.0 mg/kg/injection, schedule: Q04DX003 (ip), vehicle: saline
  survivor count: 5 of 6

## CCN(CC)c1ccc(N=Nc2ccc(S(=O)(=O)O)cc2)cc1
dose: 200.0 mg/kg/injection, schedule: Q01DX001 (ip), vehicle: saline
  survivor count: 4 of 6
[7]
  survivor count: 0 of 6

## CN1CCC2=C(C1)C(c1ccccc1)c1ccccc12 (configuration not stated)
dose: 200.0 mg/kg/injection, schedule: Q04DX003 (ip), vehicle: saline
  survivor count: 1 of 6

## CCc1cc2oc(C)c(C)c2c2nc(C)oc12
dose: 200.0 mg/kg/injection, schedule: Q04DX002 (ip), vehicle: Klucel (hydroxypropylcellulose) (HPC)
  survivor count: 3 of 3

## CSCCC(NC(=O)c1ccccc1)C(N)=O (configuration not stated)
dose: 400.0 mg/kg/injection, schedule: Q01DX009 (ip), vehicle: saline with Tween-80
  survivor count: 3 of 6

## O=C(O)C(c1ccccc1)(c1ccccc1)c1ccccc1
[7]
  survivor count: 1 of 4

## O=C(O)c1cocc1C(=O)O
dose: 400.0 mg/kg/injection, schedule: Q04DX002 (ip), vehicle: Klucel (hydroxypropylcellulose) (HPC)
  survivor count: 1 of 3

## CC(C)(C)C(/C=N/N=C(N)N)=N\N=C(N)N
dose: 240.0 mg/kg/injection, schedule: Q01DX Z (ip), vehicle: methylcellulose (MC)
  survivor count: 0 of 6
dose: 360.0 mg/kg/injection, schedule: Q01DX Z (ip), vehicle: methylcellulose (MC)
  survivor count: 0 of 6
dose: 480.0 mg/kg/injection, schedule: Q01DX Z (ip), vehicle: methylcellulose (MC)
  survivor count: 0 of 6
dose: 840.0 mg/kg/injection, schedule: Q01DX Z (oral), vehicle: methylcellulose (MC)
  survivor count: 3 of 6

## CCCCN(CCCC)CCCCCN
dose: 200.0 mg/kg/injection, schedule: Q01DX Z (ip), vehicle: carboxymethylcellulose (CMC)
  survivor count: 0 of 6

## O=C(O)c1cccc(Br)c1[N+](=O)[O-]
[7]
  survivor count: 1 of 4

## Cc1[nH]c(N)nc(=S)c1CCCN(C(=O)c1ccccc1)c1ccccc1
dose: 75.0 mg/kg/injection, schedule: Q01DX001 (ip), vehicle: Klucel (hydroxypropylcellulose) (HPC)
  survivor count: 6 of 6

## CCC/C(=N\Nc1ccc([N+](=O)[O-])cc1[N+](=O)[O-])c1ccccc1
dose: 200.0 mg/kg/injection, schedule: Q04DX003 (ip), vehicle: saline with Tween-80
  survivor count: 6 of 6

## COc1cc2c(c(OC)c1OC)-c1ccc(O)c(=O)cc1[C@@H](NC(C)=O)CC2
dose: 300.0 mg/kg/injection, schedule: Q01DX001 (ip), vehicle: other
  survivor count: 0 of 6

## Cc1c(Cl)cccc1NC(=O)Oc1cc(Cl)c(Cl)cc1Cl
dose: 200.0 mg/kg/injection, schedule: Q01DX009 (ip), vehicle: saline with Tween-80
  survivor count: 1 of 6
[5]
  survivor count: 2 of 6

## C[n+]1cc(-c2ccccc2)cc2ccccc21
dose: 150.0 mg/kg/injection, schedule: Q01DX001 (ip), vehicle: saline
  survivor count: 1 of 6
dose: 300.0 mg/kg/injection, schedule: Q01DX001 (ip), vehicle: saline
  survivor count: 0 of 6

## Cc1cc(/C=C/c2ccc3cc(N(C)C)ccc3[n+]2C)c(C)n1-c1ccccc1
dose: 3.13 mg/kg/injection, schedule: Q01DX009 (ip), vehicle: saline with Tween-80
  survivor count: 6 of 6
dose: 6.25 mg/kg/injection, schedule: Q01DX009 (ip), vehicle: saline with Tween-80
  survivor count: 4 of 6
dose: 12.5 mg/kg/injection, schedule: Q01DX009 (ip), vehicle: saline with Tween-80
  survivor count: 0 of 6
dose: 25.0 mg/kg/injection, schedule: Q01DX009 (ip), vehicle: saline with Tween-80
  survivor count: 0 of 6
dose: 50.0 mg/kg/injection, schedule: Q01DX009 (ip), vehicle: saline with Tween-80
  survivor count: 0 of 6

## CCCC[P+](CCCC)(CCCC)Cc1ccc(C(=O)Oc2ccc([N+](=O)[O-])cc2)cc1
[3]
  survivor count: 3 of 6
[4]
  survivor count: 2 of 6

## O=C1C=C(O)c2cc(Br)ccc2C1=O.[Ag]
dose: 200.0 mg/kg/injection, schedule: Q04DX002 (ip), vehicle: saline
  survivor count: 0 of 3
dose: 400.0 mg/kg/injection, schedule: Q04DX002 (ip), vehicle: saline
  survivor count: 0 of 3
